Here are results for one substance from paper PMC12652325.

Protein sequences, listed by entry. Tags and fused reporters are not part of them.
UniProt P51608: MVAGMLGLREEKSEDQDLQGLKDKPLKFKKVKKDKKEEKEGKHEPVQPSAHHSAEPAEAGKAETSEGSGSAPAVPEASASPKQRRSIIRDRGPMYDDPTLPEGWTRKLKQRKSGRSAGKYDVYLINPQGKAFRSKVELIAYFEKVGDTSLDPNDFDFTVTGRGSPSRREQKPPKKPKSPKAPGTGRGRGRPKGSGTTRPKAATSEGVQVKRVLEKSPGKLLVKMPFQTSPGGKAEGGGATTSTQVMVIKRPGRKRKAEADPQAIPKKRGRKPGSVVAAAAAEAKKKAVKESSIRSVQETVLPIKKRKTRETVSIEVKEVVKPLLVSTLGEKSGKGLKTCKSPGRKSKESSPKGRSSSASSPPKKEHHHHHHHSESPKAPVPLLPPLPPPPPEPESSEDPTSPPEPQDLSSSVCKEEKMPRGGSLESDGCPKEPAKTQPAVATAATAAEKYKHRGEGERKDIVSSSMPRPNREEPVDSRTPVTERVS
UniProt O00472: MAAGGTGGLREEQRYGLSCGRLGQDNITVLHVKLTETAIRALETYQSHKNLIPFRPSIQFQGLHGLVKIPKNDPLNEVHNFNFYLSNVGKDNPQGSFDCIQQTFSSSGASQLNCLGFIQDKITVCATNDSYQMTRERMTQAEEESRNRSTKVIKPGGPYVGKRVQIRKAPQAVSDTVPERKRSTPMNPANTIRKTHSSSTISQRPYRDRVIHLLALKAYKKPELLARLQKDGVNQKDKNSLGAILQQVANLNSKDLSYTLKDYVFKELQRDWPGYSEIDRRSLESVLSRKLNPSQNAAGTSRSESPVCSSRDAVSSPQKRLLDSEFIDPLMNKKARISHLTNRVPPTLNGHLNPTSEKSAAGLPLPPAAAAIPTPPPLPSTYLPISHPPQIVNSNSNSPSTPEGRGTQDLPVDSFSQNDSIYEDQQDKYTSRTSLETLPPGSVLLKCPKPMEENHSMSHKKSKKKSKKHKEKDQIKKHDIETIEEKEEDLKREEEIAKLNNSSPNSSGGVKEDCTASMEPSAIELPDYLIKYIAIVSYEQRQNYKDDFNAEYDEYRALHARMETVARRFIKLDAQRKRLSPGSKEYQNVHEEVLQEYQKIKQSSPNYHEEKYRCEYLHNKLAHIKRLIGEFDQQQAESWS

These are yes or no findings as the source states them, for the method shown. In cells and extracts the contact can be indirect. Some results given as binding are weak or reduced against the parent protein; the word gives no strength.

In this test the target is FLAG-tagged MeCP2, full length (human) (UniProt P51608). Kind of test: co-IP; in vitro binding assay: in vitro transcribed and translated FLAG-tagged MeCP2 (or fragment) incubated with one HA-tagged SEC subunit in 250 ul IP buffer, 1 hour, 4°C; IP with FLAG antibody-conjugated beads, four washes; blots for HA and FLAG.

Turning to “HA-tagged ELL2 (from UniProt O00472 1-640)”, the binding result is recorded as “binds weakly”.
